{
  "source": "patent US20060216336A1",
  "about": "“Transdermal therapeutic system for Parkinson's Disease” (priority 2002, published 2006)",
  "assay": "Multiple dose trial with rotating patch application sites in early-stage Parkinson's disease: rotigotine pharmacokinetics (Example 4)",
  "text": "Each day, a fresh patch was placed on a new skin site (abdomen, flank, upper arm, shoulder, thigh, hip) in a rotating order. The silicone transdermal patches were made in accordance with the teachings of U.S. Patent Application Publication No. US 2003/0026830 at paragraphs 38-42, U.S. Patent Application Publication No. US 2003/0027793 at paragraphs 37-41 and U.S. Pat. No. 6,884,434, columns 5-6, Example 2 and comprised the following layers and components:\nThe trial consisted of an Eligibility Assessment (EA), a 24-day Titration Phase (4.5 to 18.0 mg/day doses; incremental increases of 4.5mg/day every 6 days), a 6-day Maintenance Phase (18.0 mg/day dose), a 6-day De-escalation Phase (13.5/9.0/4.5mg/day decreasing dose every 2 days), and a Safety Follow-Up visit 2 days following the last dose.\nThe silicone transdermal patches were made in accordance with the teachings of U.S. Patent Application Publication No. US 2003/0026830 at paragraphs 3842 and U.S. Patent Application Publication No. US 2003/0027793 at paragraphs 3741 comprised the following layers and components as disclosed above\nThe 18.0 mg/day dose used 2×20 cm^2 patches. Initial doses were 4.5 mg/day with weekly increases of 4.5 mg/day to a maximum target dose of 18.0 mg/day.",
  "key": {"[1]": {"details": "Application Site = Flank, Day 27, 23.5 H"}},
  "note": "The source gives many values for each of these; only a part stands here.",
  "data": [
    {"smiles": "CCCN(CCc1cccs1)[C@H]1CCc2c(O)cccc2C1", "note": "[rotigotine, (6S)-6{propyl[2-(2-thienyl)ethyl]amino}-5,6,7,8-tetrahydro-1-naphthalenol]", "values": [
      {"measurement": "rotigotine plasma concentrations, Median", "setting": "Application Site = Abdomen, Day 27, 23.5 H", "value": 0.7200, "unit": "ng/mL"},
      {"measurement": "rotigotine plasma concentrations, Geo. Mean", "setting": "[1]", "value": 0.7457, "unit": "ng/mL"},
      {"measurement": "rotigotine plasma concentrations, Mean", "setting": "[1]", "value": 1.1897, "unit": "ng/mL"},
      {"measurement": "rotigotine plasma concentrations, Median", "setting": "[1]", "value": 0.6040, "unit": "ng/mL"},
      {"measurement": "rotigotine plasma concentrations, Geo. Mean", "setting": "Application Site = Flank, Day 30, 23.5 H", "value": 0.8877, "unit": "ng/mL"},
      {"measurement": "rotigotine plasma concentration Geo. Mean", "setting": "Hip, Days 27 & 30 Combined, 23.5 H", "value": 0.8144, "unit": "ng/mL"},
      {"measurement": "rotigotine plasma concentration Geo. Mean", "setting": "Shoulder, Day 27, 23.5 H", "value": 0.7901, "unit": "ng/mL"},
      {"measurement": "rotigotine plasma concentration Geo. Mean", "setting": "Thigh, Day 27, 23.5 H", "value": 0.6187, "unit": "ng/mL"},
      {"measurement": "rotigotine plasma concentration Geo. Mean", "setting": "Upper Arm, Day 27, 23.5 H", "value": 0.7423, "unit": "ng/mL"}
    ]}
  ]
}
